# The supplement of paper PMC8728848
# The list shows a part of the results.
# B1: Gs78B-bfa-542-29-542 (Bacteroides fragilis) (protein)
# chain: SEDINRNPLLPTKEDEKMDGVIYGAYLPNLEKSVIPIGTASESTEPVNRYQIGVNLAGDAWAGYMSPRDNKFNGSKNFTNYFMYENWVNYVYSFMVTDVYSPWMQIKRISQDEGTRNDEIYALAQIIKIAALHRTTDMFGPIPYSQVGKGSFKVAYDSQESVYRSFLKELEEAVQTLDDYSNKSKEVLPAFDIVYNGDVNKWMRFANSLMLRLAIRVRFADAGLAKEYAEKAVKHPAGLINSKELAAQMGKGAGLQMKNPLKVINEEYNDTRMGATIYSYLAGYNDARAAVYFVKNNGFKAVRCGIAKSGDAYNGFTRPNVHEDDPLYWMKASEVCFLKAEGALAGFDMGGSAGDFYNAGIRMSFSENGLDNSSAETYLKDSTRKPANYTDTSNGELSANAPSSITIRWENGATEEEKLERIITQKYLAIFPNGQEAWTEWRRTGYPRQIVVAENKTNSAVLIGNGYDLGGVRRLPYPRTEYEQNGENLHNAISQYLGGVDNAATKVWWDKKSK
# Tests used:
# Test in all cases: glycan array binding signal (z-score within array); higher = stronger binding
# Details in all cases: glycan notation: IUPAC condensed, linker removed
# [1] = target: Gal(b1-4)GlcNAc(b1-2)[Gal(b1-4)GlcNAc(b1-6)]Man(a1-6)[GlcNAc(b1-4)][Gal(b1-4)GlcNAc(b1-2)Man(a1-3)]Man(b1-4)GlcNAc(b1-4)GlcNAc
# Outline: (§1)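 Glycan array data came from 3228 arrays in the Consortium for Functional Glycomics database, and only arrays with an available protein sequence were kept. Glycan names were put into IUPAC-condensed notation, and columns mapping to the same glycan were averaged. The binding signal is a within-array Z-score, averaged across arrays of one protein sequence run at different concentrations or buffers and across linkers. A negative Z-score can be read as non-binding.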
# [2] = target: Gal(b1-4)GlcNAc(b1-2)[Gal(b1-4)GlcNAc(b1-6)]Man(a1-6)[GlcNAc(b1-4)][Gal(b1-4)GlcNAc(b1-2)[Gal(b1-4)GlcNAc(b1-4)]Man(a1-3)]Man(b1-4)GlcNAc(b1-4)[Fuc(a1-6)]GlcNAc
# Outline: as §1
# [3] = target: Gal(b1-4)GlcNAc(b1-3)Gal(b1-3)GalNAc
# Outline: as §1
# [4] = target: Gal(b1-4)GlcNAc(b1-3)Gal(b1-3)GlcNAc
# Outline: as §1
# [5] = target: Gal(b1-4)GlcNAc(b1-3)Gal(b1-4)Glc
# Outline: as §1
# [6] = target: Gal(b1-4)GlcNAc(b1-3)Gal(b1-4)GlcNAc
# Outline: as §1
# [7] = target: Gal(b1-4)GlcNAc(b1-3)Gal(b1-4)GlcNAc(b1-2)Man(a1-3)[Gal(b1-4)GlcNAc(b1-3)Gal(b1-4)GlcNAc(b1-2)Man(a1-6)]Man(b1-4)GlcNAc(b1-4)GlcNAc
# Outline: as §1
# [8] = target: Gal(b1-4)GlcNAc(b1-3)Gal(b1-4)GlcNAc(b1-2)Man(a1-3)[Gal(b1-4)GlcNAc(b1-3)Gal(b1-4)GlcNAc(b1-2)Man(a1-6)]Man(b1-4)GlcNAc(b1-4)[Fuc(a1-6)]GlcNAc
# Outline: as §1
# [9] = target: Gal(b1-4)GlcNAc(b1-3)Gal(b1-4)GlcNAc(b1-2)[Gal(b1-4)GlcNAc(b1-3)Gal(b1-4)GlcNAc(b1-6)]Man(a1-6)[Gal(b1-4)GlcNAc(b1-3)Gal(b1-4)GlcNAc(b1-2)Man(a1-3)]Man(b1-4)GlcNAc(b1-4)GlcNAc
# Outline: as §1
# [10] = target: Gal(b1-4)GlcNAc(b1-3)Gal(b1-4)GlcNAc(b1-2)[Gal(b1-4)GlcNAc(b1-3)Gal(b1-4)GlcNAc(b1-6)]Man(a1-6)[Gal(b1-4)GlcNAc(b1-3)Gal(b1-4)GlcNAc(b1-2)Man(a1-3)]Man(b1-4)GlcNAc(b1-4)[Fuc(a1-6)]GlcNAc
# Outline: as §1
# [11] = target: Gal(b1-4)GlcNAc(b1-3)Gal(b1-4)GlcNAc(b1-3)Gal(b1-4)GlcNAc
# Outline: as §1
# [12] = target: Gal(b1-4)GlcNAc(b1-3)Gal(b1-4)GlcNAc(b1-3)Gal(b1-4)GlcNAc(b1-2)Man(a1-3)[Gal(b1-4)GlcNAc(b1-3)Gal(b1-4)GlcNAc(b1-3)Gal(b1-4)GlcNAc(b1-2)Man(a1-6)]Man(b1-4)GlcNAc(b1-4)GlcNAc
# Outline: as §1
# [13] = target: Gal(b1-4)GlcNAc(b1-3)Gal(b1-4)GlcNAc(b1-3)Gal(b1-4)GlcNAc(b1-2)Man(a1-3)[Gal(b1-4)GlcNAc(b1-3)Gal(b1-4)GlcNAc(b1-3)Gal(b1-4)GlcNAc(b1-2)Man(a1-6)]Man(b1-4)GlcNAc(b1-4)[Fuc(a1-6)]GlcNAc
# Outline: as §1
# [14] = target: Gal(b1-4)GlcNAc(b1-3)Gal(b1-4)GlcNAc(b1-3)Gal(b1-4)GlcNAc(b1-2)[Gal(b1-4)GlcNAc(b1-3)Gal(b1-4)GlcNAc(b1-3)Gal(b1-4)GlcNAc(b1-6)]Man(a1-6)[Gal(b1-4)GlcNAc(b1-3)Gal(b1-4)GlcNAc(b1-3)Gal(b1-4)GlcNAc(b1-2)Man(a1-3)]Man(b1-4)GlcNAc(b1-4)[Fuc(a1-6)]GlcNAc
# Outline: as §1
# [15] = target: Gal(b1-4)GlcNAc(b1-3)Gal(b1-4)GlcNAc(b1-3)Gal(b1-4)GlcNAc(b1-3)Gal(b1-4)GlcNAc(b1-2)Man(a1-3)[Gal(b1-4)GlcNAc(b1-3)Gal(b1-4)GlcNAc(b1-3)Gal(b1-4)GlcNAc(b1-3)Gal(b1-4)GlcNAc(b1-2)Man(a1-6)]Man(b1-4)GlcNAc(b1-4)GlcNAc
# Outline: as §1
# [16] = target: Gal(b1-4)GlcNAc(b1-3)Gal(b1-4)GlcNAc(b1-3)Gal(b1-4)GlcNAc(b1-3)Gal(b1-4)GlcNAc(b1-2)Man(a1-3)[Gal(b1-4)GlcNAc(b1-3)Gal(b1-4)GlcNAc(b1-3)Gal(b1-4)GlcNAc(b1-3)Gal(b1-4)GlcNAc(b1-2)Man(a1-6)]Man(b1-4)GlcNAc(b1-4)[Fuc(a1-6)]GlcNAc
# Outline: as §1
# [17] = target: Gal(b1-4)GlcNAc(b1-3)Gal(b1-4)GlcNAc(b1-3)Gal(b1-4)GlcNAc(b1-3)Gal(b1-4)GlcNAc(b1-2)[Gal(b1-4)GlcNAc(b1-3)Gal(b1-4)GlcNAc(b1-3)Gal(b1-4)GlcNAc(b1-3)Gal(b1-4)GlcNAc(b1-6)]Man(a1-6)[Gal(b1-4)GlcNAc(b1-3)Gal(b1-4)GlcNAc(b1-3)Gal(b1-4)GlcNAc(b1-3)Gal(b1-4)GlcNAc(b1-2)Man(a1-3)]Man(b1-4)GlcNAc(b1-4)[Fuc(a1-6)]GlcNAc
# Outline: as §1
# [18] = target: Gal(b1-4)GlcNAc(b1-3)Gal(b1-4)GlcNAc(b1-3)Gal(b1-4)GlcNAc(b1-3)Gal(b1-4)GlcNAc(b1-3)Gal(b1-4)GlcNAc(b1-2)Man(a1-3)[Gal(b1-4)GlcNAc(b1-3)Gal(b1-4)GlcNAc(b1-3)Gal(b1-4)GlcNAc(b1-3)Gal(b1-4)GlcNAc(b1-3)Gal(b1-4)GlcNAc(b1-2)Man(a1-6)]Man(b1-4)GlcNAc(b1-4)GlcNAc
# Outline: as §1
# [19] = target: Gal(b1-4)GlcNAc(b1-3)Gal(b1-4)GlcNAc(b1-3)Gal(b1-4)GlcNAc(b1-3)Gal(b1-4)GlcNAc(b1-3)Gal(b1-4)GlcNAc(b1-2)Man(a1-3)[Gal(b1-4)GlcNAc(b1-3)Gal(b1-4)GlcNAc(b1-3)Gal(b1-4)GlcNAc(b1-3)Gal(b1-4)GlcNAc(b1-3)Gal(b1-4)GlcNAc(b1-2)Man(a1-6)]Man(b1-4)GlcNAc(b1-4)[Fuc(a1-6)]GlcNAc
# Outline: as §1
# [20] = target: Gal(b1-4)GlcNAc(b1-3)Gal(b1-4)GlcNAc(b1-3)Gal(b1-4)GlcNAc(b1-3)Gal(b1-4)GlcNAc(b1-3)Gal(b1-4)GlcNAc(b1-2)[Gal(b1-4)GlcNAc(b1-3)Gal(b1-4)GlcNAc(b1-3)Gal(b1-4)GlcNAc(b1-3)Gal(b1-4)GlcNAc(b1-3)Gal(b1-4)GlcNAc(b1-6)]Man(a1-6)[Gal(b1-4)GlcNAc(b1-3)Gal(b1-4)GlcNAc(b1-3)Gal(b1-4)GlcNAc(b1-3)Gal(b1-4)GlcNAc(b1-3)Gal(b1-4)GlcNAc(b1-2)Man(a1-3)]Man(b1-4)GlcNAc(b1-4)[Fuc(a1-6)]GlcNAc
# Outline: as §1
# [21] = target: Gal(b1-4)GlcNAc(b1-3)Gal(b1-4)GlcNAc(b1-3)Gal(b1-4)GlcNAc(b1-3)Gal(b1-4)GlcNAc(b1-3)Gal(b1-4)GlcNAc(b1-3)Gal(b1-4)GlcNAc(b1-2)Man(a1-3)[Gal(b1-4)GlcNAc(b1-3)Gal(b1-4)GlcNAc(b1-3)Gal(b1-4)GlcNAc(b1-3)Gal(b1-4)GlcNAc(b1-3)Gal(b1-4)GlcNAc(b1-3)Gal(b1-4)GlcNAc(b1-2)Man(a1-6)]Man(b1-4)GlcNAc(b1-4)GlcNAc
# Outline: as §1
# [22] = target: Gal(b1-4)GlcNAc(b1-3)Gal(b1-4)GlcNAc(b1-3)GalNAc
# Outline: as §1
# [23] = target: Gal(b1-4)GlcNAc(b1-3)Gal(b1-4)GlcNAc(b1-3)[Gal(b1-4)GlcNAc(b1-3)Gal(b1-4)GlcNAc(b1-6)]GalNAc
# Outline: as §1
# [24] = target: Gal(b1-4)GlcNAc(b1-3)Gal(b1-4)GlcNAc(b1-6)[Gal(b1-3)]GalNAc
# Outline: as §1
# [25] = target: Gal(b1-4)GlcNAc(b1-3)Gal(b1-4)[Fuc(a1-3)]GlcNAc(b1-3)Gal(b1-4)[Fuc(a1-3)]GlcNAc
# Outline: as §1
# [26] = target: Gal(b1-4)GlcNAc(b1-3)GalNAc
# Outline: as §1
# [27] = target: Gal(b1-4)GlcNAc(b1-3)[Fuc(a1-3)GlcNAc(b1-6)]Gal(b1-4)Glc
# Outline: as §1
# [28] = target: Gal(b1-4)GlcNAc(b1-3)[Gal(b1-4)GlcNAc(b1-6)]Gal(b1-4)GlcNAc
# Outline: as §1
# [29] = target: Gal(b1-4)GlcNAc(b1-3)[GlcNAc(b1-6)]Gal(b1-4)GlcNAc
# Outline: as §1
# [30] = target: Gal(b1-4)GlcNAc(b1-6)Gal(b1-4)GlcNAc
# Outline: as §1
# [31] = target: Gal(b1-4)GlcNAc(b1-6)GalNAc
# Outline: as §1
# [32] = target: Gal(b1-4)GlcNAc(b1-6)[Gal(b1-3)]GalNAc
# Outline: as §1
# [33] = target: Gal(b1-4)GlcNAc(b1-6)[Gal(b1-4)GlcNAc(b1-3)]GalNAc
# Outline: as §1
# Gal(b1-4)GlcNAc6P = target: Gal(b1-4)GlcNAc6P
# Outline: as §1
# Gal(b1-6)Gal = target: Gal(b1-6)Gal
# Outline: as §1
# Gal3S(b1-3)GalNAc = target: Gal3S(b1-3)GalNAc
# Outline: as §1
# Gal3S(b1-3)GlcNAc = target: Gal3S(b1-3)GlcNAc
# Outline: as §1
# [34] = target: Gal3S(b1-3)[Fuc(a1-4)]GlcNAc
# Outline: as §1
binder,measurement,setting,value
B1,glycan array binding signal (z-score),[1],0.758
same,glycan array binding signal (z-score),[2],1.22
same,glycan array binding signal (z-score),[3],1.08
same,glycan array binding signal (z-score),[4],-0.683
same,glycan array binding signal (z-score),[5],0.909
same,glycan array binding signal (z-score),[6],-0.463
same,glycan array binding signal (z-score),[7],0.456
same,glycan array binding signal (z-score),[8],2.98
same,glycan array binding signal (z-score),[9],2.53
same,glycan array binding signal (z-score),[10],3.42
same,glycan array binding signal (z-score),[11],0.792
same,glycan array binding signal (z-score),[12],2.01
same,glycan array binding signal (z-score),[13],3.12
same,glycan array binding signal (z-score),[14],1.06
same,glycan array binding signal (z-score),[15],0.353
same,glycan array binding signal (z-score),[16],1.23
same,glycan array binding signal (z-score),[17],1.24
same,glycan array binding signal (z-score),[18],2.16
same,glycan array binding signal (z-score),[19],2.37
same,glycan array binding signal (z-score),[20],0.95
same,glycan array binding signal (z-score),[21],0.959
same,glycan array binding signal (z-score),[22],1.04
same,glycan array binding signal (z-score),[23],1.47
same,glycan array binding signal (z-score),[24],2.1
same,glycan array binding signal (z-score),[25],-0.307
same,glycan array binding signal (z-score),[26],-0.394
same,glycan array binding signal (z-score),[27],1.35
same,glycan array binding signal (z-score),[28],2.05
same,glycan array binding signal (z-score),[29],0.076
same,glycan array binding signal (z-score),[30],0.329
same,glycan array binding signal (z-score),[31],1.05
same,glycan array binding signal (z-score),[32],0.189
same,glycan array binding signal (z-score),[33],0.453
same,glycan array binding signal (z-score),Gal(b1-4)GlcNAc6P,2.33
same,glycan array binding signal (z-score),Gal(b1-6)Gal,-0.391
same,glycan array binding signal (z-score),Gal3S(b1-3)GalNAc,-0.403
same,glycan array binding signal (z-score),Gal3S(b1-3)GlcNAc,-0.834
same,glycan array binding signal (z-score),[34],0.253

# Some of the entries above, reformatted:
binder	measurement	setting	value
B1	glycan array binding signal (z-score)	[33]	0.453
same	glycan array binding signal (z-score)	Gal(b1-4)GlcNAc6P	2.33
